Source: publication doi:10.1101/2020.04.30.071365
Numbering of substitutions follows the chain as printed. Names may count otherwise. No constants are given. Whether binding was seen depends on the method and setting. Binding seen in cells or lysates may run through a third protein. Some entries that bind do so weakly or less than the wild type. For some of these results: Sequences can lack the tags named with a protein.

T1: RBM14-HA (UniProt Q96PK6)
T1 sequence: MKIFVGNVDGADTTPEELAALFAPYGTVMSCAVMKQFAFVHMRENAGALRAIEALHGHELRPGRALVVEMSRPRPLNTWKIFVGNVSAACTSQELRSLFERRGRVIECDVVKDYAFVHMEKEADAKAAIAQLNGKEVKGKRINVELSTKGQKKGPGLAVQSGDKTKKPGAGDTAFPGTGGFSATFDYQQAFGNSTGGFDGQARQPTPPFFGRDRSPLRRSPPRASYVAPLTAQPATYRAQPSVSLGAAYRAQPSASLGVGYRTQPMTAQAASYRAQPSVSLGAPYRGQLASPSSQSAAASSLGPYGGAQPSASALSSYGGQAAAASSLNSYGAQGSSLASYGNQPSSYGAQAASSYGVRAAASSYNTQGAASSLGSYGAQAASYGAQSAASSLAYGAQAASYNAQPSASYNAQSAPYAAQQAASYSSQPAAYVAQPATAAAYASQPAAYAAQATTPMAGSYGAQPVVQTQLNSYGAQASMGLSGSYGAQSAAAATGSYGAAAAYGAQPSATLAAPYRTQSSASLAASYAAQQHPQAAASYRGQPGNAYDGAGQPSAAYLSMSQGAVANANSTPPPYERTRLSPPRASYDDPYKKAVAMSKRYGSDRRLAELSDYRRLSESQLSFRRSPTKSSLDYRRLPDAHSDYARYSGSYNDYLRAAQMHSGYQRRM

T2: mCherry-cyclin F(S621G) (human) (UniProt P41002)
T2 sequence: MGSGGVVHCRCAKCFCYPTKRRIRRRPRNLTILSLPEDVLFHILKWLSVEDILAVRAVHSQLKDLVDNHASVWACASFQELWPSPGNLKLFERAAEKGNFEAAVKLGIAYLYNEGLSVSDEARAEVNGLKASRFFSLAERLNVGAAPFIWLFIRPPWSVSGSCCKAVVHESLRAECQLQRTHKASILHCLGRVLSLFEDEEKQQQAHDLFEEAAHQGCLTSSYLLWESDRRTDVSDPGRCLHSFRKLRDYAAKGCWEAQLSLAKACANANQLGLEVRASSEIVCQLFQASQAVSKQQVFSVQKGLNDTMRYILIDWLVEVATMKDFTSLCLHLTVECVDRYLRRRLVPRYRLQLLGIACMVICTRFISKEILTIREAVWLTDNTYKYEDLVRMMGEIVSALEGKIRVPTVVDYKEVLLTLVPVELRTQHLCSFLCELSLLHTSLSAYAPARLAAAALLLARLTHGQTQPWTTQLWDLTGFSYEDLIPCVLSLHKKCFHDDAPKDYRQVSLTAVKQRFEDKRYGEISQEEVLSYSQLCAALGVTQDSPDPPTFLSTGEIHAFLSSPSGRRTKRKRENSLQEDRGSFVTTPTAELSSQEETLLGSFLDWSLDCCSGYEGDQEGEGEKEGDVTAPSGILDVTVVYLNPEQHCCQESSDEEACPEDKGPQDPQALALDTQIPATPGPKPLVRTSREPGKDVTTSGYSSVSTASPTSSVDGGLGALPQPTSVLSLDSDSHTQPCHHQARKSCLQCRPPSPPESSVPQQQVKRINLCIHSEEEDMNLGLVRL

T3: mCherry-cyclin F(WT) (human) (UniProt P41002)
T3 sequence: T2 sequence with G621S

T4: cyclin F(WT)-flag (human) (UniProt P41002)
T4 sequence: T2 sequence with G621S

T5: cyclin F(S621G)-flag (human) (UniProt P41002)
T5 sequence: T2 sequence

B1: cyclin F(WT)-flag (protein, UniProt P41002 1-786)
chain: T2 sequence with G621S
B2: cyclin F(S621G)-flag (protein, UniProt P41002 1-786)
chain: T2 sequence
B3: NONO (protein, UniProt Q15233 1-471)
chain: MQSNKTFNLEKQNHTPRKHHQHHHQQQHHQQQQQQPPPPPIPANGQQASSQNEGLTIDLKNFRKPGEKTFTQRSRLFVGNLPPDITEEEMRKLFEKYGKAGEVFIHKDKGFGFIRLETRTLAEIAKVELDNMPLRGKQLRVRFACHSASLTVRNLPQYVSNELLEEAFSVFGQVERAVVIVDDRGRPSGKGIVEFSGKPAARKALDRCSEGSFLLTTFPRPVTVEPMDQLDDEEGLPEKLVIKNQQFHKEREQPPRFAQPGSFEYEYAMRWKALIEMEKQQQDQVDRNIKEAREKLEMEMEAARHEHQVMLMRQDLMRRQEELRRMEELHNQEVQKRKQLELRQEEERRRREEEMRRQQEEMMRRQQEGFKGTFPDAREQEIRMGQMAMGGAMGINNRGAMPPAPVPAGTPAPPGPATMMPDGTLGLTPPTTERFGQAATMEGIGAIGGTPPAFNRAAPGAEFAPNKRRRY
B4: endogenous RBM14 (protein, UniProt Q96PK6 1-669)
chain: T1 sequence
B5: RBM14-HA (protein, UniProt Q96PK6 1-669)
chain: T1 sequence

Experiments:
Assay in all cases: co-IP
[1] = biological target: T1, RBM14-HA
[2] = biological target: T2, mCherry-cyclin F(S621G) (human)
[3] = biological target: T3, mCherry-cyclin F(WT) (human)
[4] = biological target: T4, cyclin F(WT)-flag (human)
[5] = biological target: T5, cyclin F(S621G)-flag (human)

Row | Binder | binding [1] | binding [2] | binding [3] | binding [4] | binding [5]
1 | B1 | binds |  |  |  | 
2 | B2 | binds |  |  |  | 
3 | B3 |  | binds | binds |  | 
4 | B4 |  | binds | binds | binds | binds
5 | B5 |  |  |  | binds | binds
